Source: PubChem BioAssay AID2549 (National Center for Advancing Translational Sciences (NCATS), 2010)
Screen size: about 240,000 compounds; about 1,300 (0.54%) were called active. Inconclusive means that the source gave no clear call. Such entries were picked first, then a sample of the others. Calls follow the shape of the dose curve; as a rule, active = well fitted inhibition curve with a large enough effect; inconclusive = small, poorly fitted or top-dose-only effect; inactive = flat fitted curve, though single readings scatter. Where the call is inconclusive, the potency comes from a doubtful curve fit. Where a structure was tested more than once in an assay, its records may differ in their call.

Amino acid sequences for entries named in this document (tags omitted). A change or cut given only in a name is not applied to a line headed by its entry.
UniProt P46063: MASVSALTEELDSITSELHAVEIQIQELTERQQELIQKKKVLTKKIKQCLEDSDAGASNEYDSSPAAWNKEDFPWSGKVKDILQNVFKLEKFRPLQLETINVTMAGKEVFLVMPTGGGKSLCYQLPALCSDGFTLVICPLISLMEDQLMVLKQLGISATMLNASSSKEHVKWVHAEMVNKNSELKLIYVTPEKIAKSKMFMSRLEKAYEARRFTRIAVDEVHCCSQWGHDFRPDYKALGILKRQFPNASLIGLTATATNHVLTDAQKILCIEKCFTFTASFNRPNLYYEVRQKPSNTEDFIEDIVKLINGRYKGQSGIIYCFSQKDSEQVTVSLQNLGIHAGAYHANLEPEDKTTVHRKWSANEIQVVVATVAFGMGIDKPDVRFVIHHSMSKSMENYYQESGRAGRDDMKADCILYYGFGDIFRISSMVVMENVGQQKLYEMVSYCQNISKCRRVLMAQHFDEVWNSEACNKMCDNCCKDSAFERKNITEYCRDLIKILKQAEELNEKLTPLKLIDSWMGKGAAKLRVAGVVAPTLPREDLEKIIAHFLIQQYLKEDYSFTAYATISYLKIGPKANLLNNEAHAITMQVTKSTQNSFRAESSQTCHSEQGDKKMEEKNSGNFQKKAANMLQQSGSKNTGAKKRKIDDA

molecular target: ATP-dependent DNA helicase Q1 (Homo sapiens) (UniProt P46063); experiment: qHTS Assay for Inhibitors of RecQ-Like Dna Helicase 1 (RECQ1); settings: RECQ1 DNA unwinding, red fluorescence kinetic read; series mostly up to 57.3 µM; also: nearly all actives have a fitted effect of over 30% in size
Method in brief: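 RECQ1T1 50 nM; forked duplex (20 bp + 30-nt ss tails) 200 nM, ATP 2 mM final; pH 8.0, 2 mM MgCl2, 2.5 ug/ml poly(dI-dC); 15 min compound preincubation; discontinuous kinetic read over 2 h at RT.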
Potency is read from the fitted curve at half-maximal effect.

Question: How did the Potency turn out when `CCNc1nc(Cl)nc(NCC)n1` was run?
Answer: inactive

Question: For `NC(=O)CI`, which Potency is on record?
Answer: inconclusive: 0.631 µM [inhibitor, single point]

Question: Which Potency does the source give for `CC1COC2=C1C(=O)C(=O)c1c2ccc2c1CCCC2(C)C` (centres undefined) here?
Answer: active: 12.6 µM

Question: For `C=CCN1C(=O)/C(=C/c2ccc3c(c2)CCCN3CCC)C(=O)NC1=S`, which Potency is on record?
Answer: inconclusive: 35.5 µM [inhibitor, single point]

Question: `Cn1cccc1/C=C1\C(=O)NC(=O)N(Cc2ccco2)C1=O` was tested. Which Potency did it give?
Answer: inconclusive: 20 µM [inhibitor, partial curve, poor fit]

Question: Which Potency does the source give for `C=C(Cl)CCl` here?
Answer: inactive

Question: How did the Potency turn out when `CCCn1c(C(=O)c2ccccc2)nc2ccccc21` was run?
Answer: inconclusive: 25.1 µM [inhibitor, partial curve]

Question: `Cc1cccc(N2C(=O)/C(=C/c3ccc(CN(CCC#N)S(C)(=O)=O)o3)C(=O)NC2=S)c1` was tested. Which Potency did it give?
Answer: active: 17.8 µM

Question: For `O=C1C=CC(=O)C(Cl)=C1`, which Potency is on record?
Answer: active: 20 µM

Question: With `Cc1cc(/C=C2\C(=O)NC(=O)N(Cc3ccccc3Cl)C2=O)c(C)n1-c1ccc(C(=O)O)cc1` as the compound, how does the Potency read?
Answer: inconclusive: 39.8 µM [inhibitor, single point]

Question: With `CNc1cc(Cl)c2nonc2c1[N+](=O)[O-]` as the compound, how does the Potency read?
Answer: inactive

Question: How did the Potency turn out when `CN(C)N=O` was run?
Answer: inactive

Question: Which Potency does the source give for `COC(=O)C1=Nc2ccccc2/C1=C\c1c(O)n(-c2cc(OC)ccc2OC)c(=O)[nH]c1=O` here?
Answer: inconclusive: 35.5 µM [inhibitor, single point]

Question: For `CC/C(=N\NC(=S)Nc1ccccc1)c1c(O)[nH]c(=O)[nH]c1=O`, which Potency is on record?
Answer: inactive

Question: For `CN1C[C@H](C(=O)N[C@]2(C)O[C@@]3(O)[C@@H]4CCCN4C(=O)[C@H](Cc4ccccc4)N3C2=O)C=C2c3cccc4[nH]cc(c34)C[C@H]21`, which Potency is on record?
Answer: inconclusive: 12.6 µM [inhibitor, partial curve]

Question: `Cc1cc(/C=C2\C(=O)NC(=O)N(Cc3ccccc3)C2=O)c(C)n1-c1ccc(Cl)c(C(=O)O)c1` was tested. Which Potency did it give?
Answer: active: 35.5 µM

Question: Which Potency does the source give for `CSc1ncc(/C=C2/C(=O)NC(=O)N(C)C2=O)cn1` here?
Answer: inconclusive: 8.91 µM [inhibitor, single point]

Question: How did the Potency turn out when `c1cncc(C2Nc3cccc4cccc(c34)N2)c1` was run?
Answer: inconclusive: 6.31 µM [inhibitor, single point]

Question: `Nc1ccccc1-c1ccccc1` was tested. Which Potency did it give?
Answer: inactive

Question: With `CN1CCc2cc(O)cc3c2C1Cc1ccc(O)c(O)c1-3` (centres undefined) as the compound, how does the Potency read?
Answer: inconclusive: 20 µM [inhibitor, single point]

Question: For `CCC(=O)Nc1cc(C(=O)O)ccc1S(=O)(=O)c1ccc(C)cc1`, which Potency is on record?
Answer: inconclusive: 35.5 µM [inhibitor, single point]

Question: `CCN1C(=O)/C(=C\c2ccc([N+](=O)[O-])s2)C(=O)NC1=S` was tested. Which Potency did it give?
Answer: inconclusive: 35.5 µM [inhibitor, single point]

Question: With `O=C1NC(=O)N(Cc2ccccc2)C(=O)/C1=C/N1CCCc2ccccc21` as the compound, how does the Potency read?
Answer: inconclusive: 28.2 µM [inhibitor, single point]

Question: Which Potency does the source give for `CC1=NN(c2ccccc2)C(=O)C1/C=C1/C(=O)NC(=O)N(c2cccc(C)c2)C1=O` (centres undefined) here?
Answer: inactive

Question: `Cc1ncc(CN2CCCC(C(=O)c3cccc(OC(C)C)c3)C2)s1` (centres undefined) was tested. Which Potency did it give?
Answer: inactive

Question: Which Potency does the source give for `O=C1OC(c2ccc(O)c(S(=O)(=O)O)c2)(c2ccc(O)c(S(=O)(=O)O)c2)c2c(Br)c(Br)c(Br)c(Br)c21` here?
Answer: inactive

Question: Which Potency does the source give for `c1ccc(C2N3CCCN23)cc1` (centres undefined) here?
Answer: active: 7.94 µM

Question: For `COC(=O)Nc1cccc(OC(=O)Nc2cccc(C)c2)c1`, which Potency is on record?
Answer: inactive

Question: `O=c1cccc2n1CC1CC2CN(Cc2cccc(Cl)c2Cl)C1` (centres undefined) was tested. Which Potency did it give?
Answer: inconclusive: 0.251 µM [inhibitor, full curve, poor fit]

Question: With `O=C1NC(=O)N(c2ccc(F)cc2)C(=O)/C1=C/c1ccc2c(c1)CCCN2Cc1ccccc1` as the compound, how does the Potency read?
Answer: inconclusive: 22.4 µM [inhibitor, partial curve]

Question: Which Potency does the source give for `O=C(O)C(Br)Br` here?
Answer: active: 35.5 µM

Question: For `O=S1(=O)N(CCN2CC=C(c3c[nH]c4cc(F)ccc34)CC2)c2cccc3c2N1CCC3`, which Potency is on record?
Answer: inactive

Question: For `N#CC(C#N)=Cc1ccc([N+](=O)[O-])c(O)c1`, which Potency is on record?
Answer: inconclusive: 39.8 µM [inhibitor, single point]

Question: Which Potency does the source give for `O=c1oc2ccccc2c(O)c1C(c1ccc([N+](=O)[O-])cc1)c1c(O)c2ccccc2oc1=O` here?
Answer: inconclusive: 39.8 µM [inhibitor, single point]

Question: With `CC1=C2C3OC(=O)C(C)C3CC[C@@]2(C)C=CC1=O` (some centres undefined) as the compound, how does the Potency read?
Answer: inactive

Question: How did the Potency turn out when `CCC(C=C[C@@H]1OC(=O)C=C[C@H]1C)=C[C@H](C)CC=CC(C)=C[C@@H](C)C(=O)[C@@H](C)[C@H](O)[C@@H](C)CC(C)=CC(=O)O` was run?
Answer: inconclusive: 1.26 µM [inhibitor, single point]

Question: `N/C(=N\N=C/c1ccc(-c2ccc(O)c(C(=O)O)c2)o1)N[N+](=O)[O-]` was tested. Which Potency did it give?
Answer: active: 12.6 µM

Question: Which Potency does the source give for `C[C@@H](N)[C@@H](O)c1ccc(O)c(O)c1` here?
Answer: active: 2.51 µM

Question: With `CC(C)c1ccc2c(c1O)CCC1C3=C(CC[C@]21C)C(=O)OC3` (some centres undefined) as the compound, how does the Potency read?
Answer: inactive

Question: For `Cc1onc(-c2c(Cl)cccc2Cl)c1C(=O)Nc1ccc2c(C(F)(F)F)cc(=O)oc2c1`, which Potency is on record?
Answer: inactive

Question: How did the Potency turn out when `Cc1cc(/C=C2\C(=O)NC(=O)N(Cc3ccccc3)C2=O)c(C)n1C1CC1` was run?
Answer: inactive

Question: How did the Potency turn out when `COc1ccccc1-n1c(O)c(/C=N/NC(=S)Nc2ccccc2)c(=O)[nH]c1=S` was run?
Answer: inactive

Question: For `CN1CCN(c2ccc(N)c(N3CCN(C)CC3)c2)CC1`, which Potency is on record?
Answer: inconclusive: 10 µM [inhibitor, partial curve]

Question: With `CCCCC/C=C\C/C=C\C/C=C\C/C=C\CCCC(=O)NCc1ccoc1` as the compound, how does the Potency read?
Answer: active: 11.2 µM

Question: Which Potency does the source give for `COc1ccc(CN2C(=O)NC(=O)/C(=C/c3ccoc3)C2=O)cc1` here?
Answer: inconclusive: 28.2 µM [inhibitor, single point]

Question: How did the Potency turn out when `Cc1cc(C=C2C(=O)N(C)C(=S)N(C)C2=O)c(C)n1-c1ccncc1` was run?
Answer: active: 25.1 µM

Question: How did the Potency turn out when `COc1cc2c(cc1OC)C(c1c(O)n(CCc3ccccc3)c(=S)[nH]c1=O)NCC2` (centres undefined) was run?
Answer: inconclusive: 31.6 µM [inhibitor, single point]

Question: Which Potency does the source give for `O=C1NC(=O)C(=Cc2ccc(SC3CCCCC3)o2)C(=O)N1` here?
Answer: inconclusive: 39.8 µM [inhibitor, single point]

Question: How did the Potency turn out when `N#CC(C#N)=Cc1ccc(N2CCOCC2)cc1` was run?
Answer: inactive
